PubChem BioAssay AID1508588 | Peter MacCallum Cancer Centre | 2020
Shown is a random part of about 18,000 reagents. Over the whole deposit, 790 (4.4%) are marked active. 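Calls rest on a combination of fold-change classes in drug and vehicle arms, not all shown here.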

Test: 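Knock-downs boosting vemurafenib effects on melanoma cell growth or lactate release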 (primary screen)
Cell system: human WM266.4 melanoma cells (BRAF V600 mutant)
Knock-down reagent: siRNA pool against human genes, 40 nM
Timing: 96 h from transfection to read-out
Treatment: vemurafenib 300 nM (about IC25), added 48 h after transfection, for 48 h; comparison arm got DMSO vehicle only
Detection: 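Ratios to non-targeting siRNA for cell gain, counted as DAPI nuclei after minus before drug and averaged over two replicates, and for absorbance-read medium lactate per cell; both binned into fold-change classes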
Scale: cell gain with vemurafenib: higher = more cell gain than with non-targeting siRNA; lactate per cell with vemurafenib: higher = more lactate made per cell
Call rule: 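a knock-down counts as enhancing when its fold-change classes with vehicle and with vemurafenib, taken together, show a stronger drug effect on cell gain or lactate per cell; exact class pairs not stated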
Meaning of the calls: active = enhances vemurafenib effect; inactive = no enhancement seen

For TMEM43, what does the deposit list?
cell gain with vemurafenib: 0.92; lactate per cell with vemurafenib: 0.66; outcome: inactive

What did the screen give for ATP13A2?
cell gain with vemurafenib: 0.73; lactate per cell with vemurafenib: 1.11; outcome: inactive

With CYB561A3, what was measured?
cell gain with vemurafenib: 0.73; lactate per cell with vemurafenib: 0.82; outcome: inactive

With SLC68A1, what does the deposit list?
cell gain with vemurafenib: 0.46; lactate per cell with vemurafenib: 0.66; outcome: inactive

How did the screen score KANSL1L?
cell gain with vemurafenib: 0.83; lactate per cell with vemurafenib: 0.56; outcome: inactive

For TMED6, what was measured?
cell gain with vemurafenib: 1; lactate per cell with vemurafenib: 0.46; outcome: inactive

For GALNS, what does the deposit list?
cell gain with vemurafenib: 0.42; lactate per cell with vemurafenib: 1.95; outcome: inactive

Which result is listed for ABCE1?
cell gain with vemurafenib: 0.61; lactate per cell with vemurafenib: 0.84; outcome: inactive

For TRIM6, how do the results read?
cell gain with vemurafenib: 0.3; lactate per cell with vemurafenib: 1.23; outcome: inactive

For CCDC54, what was measured?
cell gain with vemurafenib: 0.45; lactate per cell with vemurafenib: 0.98; outcome: inactive

How did the screen score RHOXF1?
cell gain with vemurafenib: 0.31; lactate per cell with vemurafenib: 0.8; outcome: inactive

For TNFAIP8, what was measured?
cell gain with vemurafenib: 0.7; lactate per cell with vemurafenib: 0.5; outcome: inactive

With COX15, what was measured?
cell gain with vemurafenib: 0.39; lactate per cell with vemurafenib: 1.25; outcome: inactive

What did the screen give for C1QTNF2?
cell gain with vemurafenib: 0.29; lactate per cell with vemurafenib: 0.92; outcome: inactive

Just “cell gain with vemurafenib” (6 entries from above):
CYB561A3: 0.73
SLC68A1: 0.46
KANSL1L: 0.83
TMED6: 1
GALNS: 0.42
ABCE1: 0.61

The results go on:
With HP1BP3, what does the deposit list?
cell gain with vemurafenib: 0.72; lactate per cell with vemurafenib: 0.53; outcome: inactive

Which result is listed for PMS2P3?
cell gain with vemurafenib: 0.3; lactate per cell with vemurafenib: 0.56; outcome: inactive

With MYPN, what was measured?
cell gain with vemurafenib: 0.28; lactate per cell with vemurafenib: 1; outcome: inactive

What is on record for DNAJA2?
cell gain with vemurafenib: 0.65; lactate per cell with vemurafenib: 0.57; outcome: inactive

What did the screen give for LSM12?
cell gain with vemurafenib: 0.33; lactate per cell with vemurafenib: 0.61; outcome: inactive

What did the screen give for KRT39?
cell gain with vemurafenib: 0.47; lactate per cell with vemurafenib: 2.15; outcome: inactive

For RAB26, what does the deposit list?
cell gain with vemurafenib: 0.28; lactate per cell with vemurafenib: 0.8; outcome: inactive

What is on record for PRR30?
cell gain with vemurafenib: 0.41; lactate per cell with vemurafenib: 0.3; outcome: active

What did the screen give for ADAMTS15?
cell gain with vemurafenib: 1.04; lactate per cell with vemurafenib: 0.64; outcome: inactive

For COX11, what was measured?
cell gain with vemurafenib: 1.04; lactate per cell with vemurafenib: 0.86; outcome: inactive

With CD33, what was measured?
cell gain with vemurafenib: 0.74; lactate per cell with vemurafenib: 0.73; outcome: inactive

With TMEM255A, how do the results read?
cell gain with vemurafenib: 0.59; lactate per cell with vemurafenib: 1.48; outcome: inactive

With NT5DC3, what was measured?
cell gain with vemurafenib: 0.69; lactate per cell with vemurafenib: 0.54; outcome: inactive

For ARSL, what does the deposit list?
cell gain with vemurafenib: 0.52; lactate per cell with vemurafenib: 1.14; outcome: inactive

With TRAPPC12, how do the results read?
cell gain with vemurafenib: 0.18; lactate per cell with vemurafenib: 1.81; outcome: inactive

How did the screen score CD244?
cell gain with vemurafenib: 1.17; lactate per cell with vemurafenib: 0.73; outcome: inactive

What did the screen give for ARMC8?
cell gain with vemurafenib: 0.5; lactate per cell with vemurafenib: 0.93; outcome: inactive

Which result is listed for SHE?
cell gain with vemurafenib: 0.78; lactate per cell with vemurafenib: 0.73; outcome: inactive

Which result is listed for EEF1AKMT1?
cell gain with vemurafenib: 0.17; lactate per cell with vemurafenib: 1.98; outcome: inactive

For C11orf52, what was measured?
cell gain with vemurafenib: 0.15; lactate per cell with vemurafenib: 0.75; outcome: inactive

How did the screen score HNF1B?
cell gain with vemurafenib: 1.1; lactate per cell with vemurafenib: 0.94; outcome: inactive

With COL16A1, what does the deposit list?
cell gain with vemurafenib: 0.53; lactate per cell with vemurafenib: -0.2; outcome: inactive

What is on record for LRRC59?
cell gain with vemurafenib: 0.43; lactate per cell with vemurafenib: 1.44; outcome: inactive

For DTNA, how do the results read?
cell gain with vemurafenib: -0.02; lactate per cell with vemurafenib: 1.89; outcome: inactive

Which result is listed for CBLIF?
cell gain with vemurafenib: 0.49; lactate per cell with vemurafenib: 1.13; outcome: inactive

For ADAM9, how do the results read?
cell gain with vemurafenib: 1.34; lactate per cell with vemurafenib: 0.3; outcome: inactive
